The values below come from patent US6426335.

Chains of the proteins cited; added tags and fusions are not shown. Chains listed by the source or under a name are the forms on record and can include a tag or linker.
VEGF165 (Homo sapiens), one chain, as listed by the source: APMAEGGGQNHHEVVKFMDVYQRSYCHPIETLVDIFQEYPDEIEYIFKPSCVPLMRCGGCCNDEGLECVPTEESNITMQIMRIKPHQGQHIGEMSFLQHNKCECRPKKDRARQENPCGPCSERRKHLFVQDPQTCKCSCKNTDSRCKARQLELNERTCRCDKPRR

What is called Kd is the constant that tells how readily two partners part at equilibrium.

For some of these results: For at least one entry, the source does not settle the construct or the ends of the probe. A value given as a limit tells only on which side of the number the result lay.

Data set [1] relates to VEGF165 (Homo sapiens). Description: EMSA. As to conditions: as NX213, plus dialkyl glycerol (1,2-di-O-octadecyl-sn-glycerol) lipid conjugate; competition EMSA, comparable to NX213; PBS 0.01% HSA 37C; VEGF isoform not stated; purified recombinant protein; variant of NX213. Background: Mobility shift assays separate free from complexed probe on a gel.
A further data set deals with VEGF. The experiment in a line: inhibition of the protein. The settings on record: 2'-F at 1,6-7,10,14,16-18,20,22,24-26, 2'-OMe at 2-3,8-9,11-13,15,19,21,23,27, 3'-3' idT at 28, purified recombinant protein.
Data set [2] has as its system VEGF165 (Homo sapiens). Description: filter binding. As to conditions: 2'-F pyrimidines; 3'-3' dT cap (N22) [22 (3'-3' dT cap); all C/U 2'-F]; 37C; purified recombinant protein; letters built from the parent sequence and the stated change; variant of t2.

Take “TTTTACCCUGAUGGUAGACGCCGGGGUGTTTTT [NX278]”: the binding result in the data set on VEGF165 (Homo sapiens) [1] is recorded as “binds”.
In the case of “CGGAAUCAGUGAAUGCUUAUACAUCCG [NX31838-PL liposome]”, the “functional effect of the aptamer” value in the data set on VEGF (phospholipid, in liposome, blocks VEGF-induced vascular leakage in guinea pig skin, reduced activity at 100 nM) is “active”.
As to ACCGAUGGAAUUUUUGGACGCT [t2e], in the data set on VEGF165 (Homo sapiens) [2], the dissociation constant Kd is over 100 nM.
“CGGAAUCAGUGAAUGCUUAUACAUCCG [NX31838-20K PEG]”: the “functional effect of the aptamer” value in the data set with VEGF (20K PEG, blocks VEGF-induced vascular leakage in guinea pig skin down to 100 nM, lost at 30 nM) is recorded as “active”.
